# According to the supplement of paper PMC12889115:
# The list shows a part of the results. These are raw signals, not scaled to a control.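 In the initial screen, polymyxin B was used at a concentration that permeabilizes Salmonella's outer membrane but not its inner membrane. Maximum growth was set by DMSO wells with or without polymyxin B. Since plates varied, data were ranked per plate, and compounds giving the lowest OD600 advanced as hits.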
# Tested on: Salmonella enterica serovar Typhimurium SL1344
# Assay: bacterial growth OD600 after 18 h with compound and polymyxin B; higher = more bacterial growth (less inhibition)
# Settings: 50 µM, Mueller-Hinton broth
Structure (SMILES),bacterial growth OD600 (polymyxin B 0.75 µg/mL),bacterial growth OD600 (polymyxin B 1 µg/mL)
CN(C)C(=O)C1CCCN(C2CCN(Cc3ccccc3)CC2)C1 (stereo unspecified),0.882,
COc1ccc(CN2CCCC(CCC(=O)NCc3ccc(OC)cc3OC)C2)c(O)c1 (stereo unspecified),0.72,
O=C(CC1=CCCCC1)N1CCC(C2CCN(Cc3cccnc3)CC2)C1 (stereo unspecified),1.01,
COc1ccc(C(=O)NC2CC2)c(OC2CCN(Cc3ccc(F)c(F)c3)CC2)c1,0.658,
CN(CC1CCCN(CCc2ccc(Cl)cc2)C1)C(=O)CC(F)(F)F (stereo unspecified),,0.877
O=C1N(CC2CCCCC2)CCCC1(O)CN1CCC(O)CC1 (stereo unspecified),,0.989
Cc1nc2cc(OCc3cc(C(=O)N4C[C@@H](C)O[C@@H](C)C4)no3)ccc2s1,,1.41
CCC1C(=O)NCCN1c1ccc(-c2nc(Cc3ccccc3)no2)cn1 (stereo unspecified),0.66,
CC(C)Cc1cc(C(=O)N2CCC(C3(CCc4ccccc4)NC(=O)NC3=O)CC2)no1 (stereo unspecified),0.761,
CC1CN(Cc2ccccc2O)Cc2cc(Cl)ccc2O1 (stereo unspecified),0.098,
COCCC(=O)N1CCC(C2CCN(c3ncccn3)CC2)C1 (stereo unspecified),0.774,
Cc1cc(C(=O)N2CCC3(CCCN(Cc4ccccc4F)C3=O)C2)n[nH]1 (stereo unspecified),,0.875
COc1ccc(CN2CCC(n3nccc3NC(=O)C(OC)c3ccccc3)CC2)cc1 (stereo unspecified),,1.02
Fc1ccc(C2CCCCN2Cc2nc(CCc3ccccc3)no2)cc1 (stereo unspecified),,0.841
Cc1cc(C)n(Cc2cc(C(=O)N3CCCCC3c3cccnc3)n[nH]2)n1 (stereo unspecified),,0.999
COc1ccccc1C1CCCN1C(=O)Cn1nnnc1CN1CCOCC1 (stereo unspecified),,0.721

Structure (SMILES),bacterial growth OD600 (polymyxin B 0.75 µg/mL),bacterial growth OD600 (polymyxin B 1 µg/mL)
CC(=O)NCCC1CCCCN1Cc1nc(Cc2cccc(F)c2)no1 (stereo unspecified),0.796,
CN(C)C1(CNC(=O)c2coc(COc3cccc(F)c3F)n2)CCCCC1,0.779,
COC1CCCN(C(=O)c2coc(CN3CCN(Cc4ccccc4)CC3)n2)C1 (stereo unspecified),,0.805
CC(=O)N1CCC(N2CCCC(CCc3ccccc3C)C2)CC1 (stereo unspecified),0.809,
COc1ccc(CC2(CCC(=O)NC3CCCc4ccccc43)CCC(=O)N2)c2ccccc12 (stereo unspecified),0.025,
CSCCNC(=O)CCc1nnc(Cc2cccc(C(F)(F)F)c2)o1,,0.852
COc1ccccc1-c1cc2c(c(OC)c1)OCCN(Cc1cc(F)ccc1F)C2,0.674,
CC(=O)N1CCN(c2ncccc2CNCC2CC=CCC2)CC1 (stereo unspecified),0.816,
O=C(CCc1ccccc1)Nc1ccc(N2CCC(NCCc3cccnc3)CC2)cc1,1.01,
COc1cccc(CC(C2CCN(C(=O)/C=C/c3cccnc3)CC2)N(C)C(=O)c2ccsc2)c1 (stereo unspecified),0.935,
CCCCNC(=O)N1CCC(CCC(=O)N(C)Cc2ccccc2)CC1,,0.993
CCC(NC1CCN(c2nc(C)c3cc(C)c(C)cc3n2)CC1)c1ccncc1 (stereo unspecified),1.04,
CCC(O)C1CCN(C(=O)CC2c3ccccc3CCc3ccccc32)CC1 (stereo unspecified),0.524,
CCCn1ncc(CN(CCOC)CC2CCCN(C3Cc4ccccc4C3)C2)c1C (stereo unspecified),0.746,
CCOC(=O)N1CCN(Cc2nc(-c3cc(F)cc(F)c3)oc2C)CC1,,0.782

# Part of the list above in order of count of non-hydrogen atoms, low to high.
Structure (SMILES),bacterial growth OD600 (polymyxin B 0.75 µg/mL),bacterial growth OD600 (polymyxin B 1 µg/mL)
CC(=O)N1CCN(c2ncccc2CNCC2CC=CCC2)CC1 (stereo unspecified),0.816,
CCCCNC(=O)N1CCC(CCC(=O)N(C)Cc2ccccc2)CC1,,0.993
O=C(CC1=CCCCC1)N1CCC(C2CCN(Cc3cccnc3)CC2)C1 (stereo unspecified),1.01,
